This experiment concerns the target T1, Smc4-Q1377A, 3xStrepTagII-tagged (S. cerevisiae) (UniProt Q12267).
T1 sequence: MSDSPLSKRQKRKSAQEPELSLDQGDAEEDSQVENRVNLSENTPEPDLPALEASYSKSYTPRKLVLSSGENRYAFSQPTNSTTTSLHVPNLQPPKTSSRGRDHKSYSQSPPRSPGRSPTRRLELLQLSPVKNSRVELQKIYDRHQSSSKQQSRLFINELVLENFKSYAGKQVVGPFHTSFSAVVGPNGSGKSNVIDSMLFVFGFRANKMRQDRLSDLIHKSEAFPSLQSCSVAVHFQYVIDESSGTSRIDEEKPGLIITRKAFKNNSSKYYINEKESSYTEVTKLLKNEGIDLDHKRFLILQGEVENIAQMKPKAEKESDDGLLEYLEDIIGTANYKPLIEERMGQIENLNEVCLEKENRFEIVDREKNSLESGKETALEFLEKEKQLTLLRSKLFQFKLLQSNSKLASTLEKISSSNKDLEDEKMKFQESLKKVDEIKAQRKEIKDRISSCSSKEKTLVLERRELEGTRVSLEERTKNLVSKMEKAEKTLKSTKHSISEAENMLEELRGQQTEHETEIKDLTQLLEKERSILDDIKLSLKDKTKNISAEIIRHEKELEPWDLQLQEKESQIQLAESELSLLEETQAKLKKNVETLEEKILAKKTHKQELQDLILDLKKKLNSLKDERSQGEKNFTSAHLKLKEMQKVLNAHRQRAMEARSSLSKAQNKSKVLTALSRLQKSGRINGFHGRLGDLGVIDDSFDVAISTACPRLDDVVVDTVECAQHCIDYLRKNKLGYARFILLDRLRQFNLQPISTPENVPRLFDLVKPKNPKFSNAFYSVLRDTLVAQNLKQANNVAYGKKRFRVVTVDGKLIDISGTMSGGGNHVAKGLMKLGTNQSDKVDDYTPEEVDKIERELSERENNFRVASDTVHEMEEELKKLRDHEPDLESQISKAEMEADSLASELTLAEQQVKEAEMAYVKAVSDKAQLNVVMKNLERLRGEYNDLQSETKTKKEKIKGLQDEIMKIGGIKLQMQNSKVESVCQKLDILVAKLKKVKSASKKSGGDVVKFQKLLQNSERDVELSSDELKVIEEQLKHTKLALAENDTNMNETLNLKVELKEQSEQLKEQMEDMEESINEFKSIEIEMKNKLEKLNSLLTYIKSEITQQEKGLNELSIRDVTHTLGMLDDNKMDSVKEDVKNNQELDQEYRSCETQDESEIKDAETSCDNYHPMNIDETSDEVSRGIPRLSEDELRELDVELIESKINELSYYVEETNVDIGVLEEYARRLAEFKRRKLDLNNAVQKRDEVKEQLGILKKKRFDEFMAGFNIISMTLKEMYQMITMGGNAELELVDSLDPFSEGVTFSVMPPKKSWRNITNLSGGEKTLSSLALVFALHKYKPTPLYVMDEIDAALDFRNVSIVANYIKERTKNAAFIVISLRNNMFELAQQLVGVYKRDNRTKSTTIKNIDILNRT
Description: tandem affinity co-purification (Ni-NTA, Strep-Trap) + SEC; five condensin subunits co-overexpressed in yeast; extract in 500 mM NaCl, 10 mM Tris-HCl pH 8.0, 10% glycerol; Ni-NTA (His tags on Brn1 and Ycg1), then Strep-Trap HP (3xStrepTagII on Smc4), then Superose 6 10/300 in 200 mM NaCl, 50 mM Tris-HCl pH 8.0; subunits seen by SDS-PAGE and Coomassie staining.

These are yes or no findings as the source states them, for the method shown. Some binding calls cover weakened binding; strength is not graded here. Sequences can lack the tags named with a protein.

B1: Smc2 (protein, UniProt P38989 1-1170)
chain: MKVEELIIDGFKSYATRTVITDWDPQFNAITGLNGSGKSNILDAICFVLGIASMSTVRASSLQDLIYKRGQAGVTKASVTIVFDNTDKSNSPIGFTNSPQISVTRQVVLGGTSKYLINGHRAPQQSVLQLFQSVQLNINNPNFLIMQGKITKVLNMKPSEILSLIEEAAGTKMFEDRREKAERTMSKKETKLQENRTLLTEEIEPKLEKLRNEKRMFLEFQSTQTDLEKTERIVVSYEYYNIKHKHTSIRETLENGETRMKMLNEFVKKTSEEIDSLNEDVEEIKLQKEKELHKEGTISKLENKENGLLNEISRLKTSLSIKVENLNDTTEKSKALESEIASSSAKLIEKKSAYANTEKDYKMVQEQLSKQRDLYKRKEELVSTLTTGISSTGAADGGYNAQLAKAKTELNEVSLAIKKSSMKMELLKKELLTIEPKLKEATKDNELNVKHVKQCQETCDKLRARLVEYGFDPSRIKDLKQREDKLKSHYYQTCKNSEYLKRRVTNLEFNYTKPYPNFEASFVHGVVGQLFQIDNDNIRYATALQTCAGGRLFNVVVQDSQTATQLLERGRLRKRVTIIPLDKIYTRPISSQVLDLAKKIAPGKVELAINLIRFDESITKAMEFIFGNSLICEDPETAKKITFHPKIRARSITLQGDVYDPEGTLSGGSRNTSESLLVDIQKYNQIQKQIETIQADLNHVTEELQTQYATSQKTKTIQSDLNLSLHKLDLAKRNLDANPSSQIIARNEEILRDIGECENEIKTKQMSLKKCQEEVSTIEKDMKEYDSDKGSKLNELKKELKLLAKELEEQESESERKYDLFQNLELETEQLSSELDSNKTLLHNHLKSIESLKLENSDLEGKIRGVEDDLVTVQTELNEEKKRLMDIDDELNELETLIKKKQDEKKSSELELQKLVHDLNKYKSNTNNMEKIIEDLRQKHEFLEDFDLVRNIVKQNEGIDLDTYRERSKQLNEKFQELRKKVNPNIMNMIENVEKKEAALKTMIKTIEKDKMKIQETISKLNEYKRETLVKTWEKVTLDFGNIFADLLPNSFAKLVPCEGKDVTQGLEVKVKLGNIWKESLIELSGGQRSLIALSLIMALLQFRPAPMYILDEVDAALDLSHTQNIGHLIKTRFKGSQFIVVSLKEGMFANANRVFRTRFQDGTSVVSIM
For B1, the binding entry was “binds”.

B2: Brn1-3xHA-12xHIS (protein, UniProt P38170 1-754)
chain: MTTQLRYENNDDDERVEYNLFTNRSTMMANFEEWIKMATDNKINSRNSWNFALIDYFYDLDVLKDGENNINFQKASATLDGCIKIYSSRVDSVTTETGKLLSGLAQRKTNGASNGDDSNGGNGEGLGGDSDEANIEIDPLTGMPISNDPDVNNTRRRVYNRVLETTLVEFETIKMKELDQELIIDPLFKKALVDFDEGGAKSLLLNTLNIDNTARVIFDASIKDTQNVGQGKLQRKEEELIERDSLVDDENEPSQSLISTRNDSTVNDSVISAPSMEDEILSLGMDFIKFDQIAVCEISGSIEQLRNVVEDINQAKDFIENVNNRFDNFLTEEELQAAVPDNAEDDSDGFDMGMQQELCYPDENHDNTSHDEQDDDNVNSTTGSIFEKDLMAYFDENLNRNWRGREHWKVRNFKKANLVNKESDLLEETRTTIGDTTDKNTTDDKSMDTKKKHKQKKVLEIDFFKTDDSFEDKVFASKGRTKIDMPIKNRKNDTHYLLPDDFHFSTDRITRLFIKPGQKMSLFSHRKHTRGDVSSGLFEKSTVSANHSNNDIPTIADEHFWADNYERKEQEEKEKEQSKEVGDVVGGALDNPFEDDMDGVDFNQAFEGTDDNEEASVKLDLQDDEDHKFPIRENKVTYSRVSKKVDVRRLKKNVWRSINNLIQEHDSRKNREQSSNDSETHTEDESTKELKFSDIIQGISKMYSDDTLKDISTSFCFICLLHLANEHGLQITHTENYNDLIVNYEDLATTQAAS
As to B2, the binding entry is “binds”.

B3: Ycs4 (protein, UniProt Q06156 1-1176)
chain: MSGFSLSEYLTKFQTTDRESYPRLQDPSRELNVIIDQLAVSPEQIDASPDSLEALIDLCHDFPHLTPKLQTQLSYLISSSLSNLSKDIKANLSSNVNFTEIGGLIPQWKRHLEEYGYLIQVLLTFLQDELHKVSSQSTNLNRSAKNSKNDSANVELFKRDCNQMENLLESITKLLEINLSKIFQTTPEKDLFIGLFTRPLFVLLEIEPVTKVSSLKMFIQRILAMCVKNHGQSSSIQSSLMTNLTYFLHLSVFNAELLKLLNDEYNYPQLTEDILKEISTRVFNAKDTTGPKAISNFLIKLSELSPGIMLRQMNLVITLLNNSSITLRCSVVEACGNIVAELAQDPQTMEHYKQQIAVLIELLEERFQDSNPYVRTKAIQGCSKICDLSSKFNKSKAKFTSLAVRSLQDRSSLVRRNSVKLLSKLLLKHPFKAIHGSQLRLSEWEEYLKGSESQLNSTLKKVESQETLNDTIERSLIEEEVEQDEGQCRTELEGSFNKSAELSRIENEVENINATNTSVLMKLKLMIVYYKDAISFIKEIHKSIELISNLLFSKNRNEVLESMDFLVLADAFDIELSEFGIKKMLHLVWMKGTNDEGTSISVHLIECYKQLFLTAPDSCNMQEKAAHIAKNLINLSIGASIADLASLEQLLGMMYEQKLIDQHVINILWAIYNSASKASMQKEQNVNNRDSEKGFSKEQIHGSIIILGMLSLADNEIALKGLESLLNIGLGAVGLKDLTLCRYSCLALERMVPKRSTIITKAINQELEDVAVKKLYAIIINYTKDNEYYPMCEQALSALFTISSKPDILATDLIREKTMMTFGKPEEEDSILSLEQSSRVVSLSQLLFIVGQVAIKTLVYLEKCEAEFKKRKIEAETRNGKVKNQGADVTNTTQDNGGDKELEMIGGTNEDDFTDAIQFVKENELLFGEKSILGKFCPIVEEIVSNSSRFSDPMLQRTATLCLEKLMCLSSKYCEKSLPLLITVMEKSPDPTIRSNAVLGLGDMAVCFNNLVDENTDYLYRRLHDENLMVQRTCLMTVTFLILAGQVKVKGQLGEMAKCLDNPDQGISDMCRLFFTELASKDNAIYNGFIDIFSNLSSDDLLGKESFKKIIKFLLTFIDKERHQKQLNEKLVGRLRKCETQKQWDDIAFVLNNLPYKNEDVTALLEQGFKVVSAKE
Consider B3, for which the binding result is recorded as “binds”.

B4: Ycg1-3xFLAG-9xHIS (protein, UniProt Q06680 1-1035)
chain: MQDPDGIDINTKIFNSVAEVFQKAQGSYAGHRKHIAVLKKIQSKAVEQGYEDAFNFWFDKLVTKILPLKKNEIIGDRIVKLVAAFIASLERELILAKKQNYKLTNDEEGIFSRFVDQFIRHVLRGVESPDKNVRFRVLQLLAVIMDNIGEIDESLFNLLILSLNKRIYDREPTVRIQAVFCLTKFQDEEQTEHLTELSDNEENFEATRTLVASIQNDPSAEVRRAAMLNLINDNNTRPYILERARDVNIVNRRLVYSRILKSMGRKCFDDIEPHIFDQLIEWGLEDRELSVRNACKRLIAHDWLNALDGDLIELLEKLDVSRSSVCVKAIEALFQSRPDILSKIKFPESIWKDFTVEIAFLFRAIYLYCLDNNITEMLEENFPEASKLSEHLNHYILLRYHHNDISNDSQSHFDYNTLEFIIEQLSIAAERYDYSDEVGRRSMLTVVRNMLALTTLSEPLIKIGIRVMKSLSINEKDFVTMAIEIINDIRDDDIEKQEQEEKIKSKKINRRNETSVDEEDENGTHNDEVNEDEEDDNISSFHSAVENLVQGNGNVSESDIINNLPPEKEASSATIVLCLTRSSYMLELVNTPLTENILIASLMDTLITPAVRNTAPNIRELGVKNLGLCCLLDVKLAIDNMYILGMCVSKGNASLKYIALQVIVDIFSVHGNTVVDGEGKVDSISLHKIFYKVLKNNGLPECQVIAAEGLCKLFLADVFTDDDLFETLVLSYFSPINSSNEALVQAFAFCIPVYCFSHPAHQQRMSRTAADILLRLCVLWDDLQSSVIPEVDREAMLKPNIIFQQLLFWTDPRNLVNQTGSTKKDTVQLTFLIDVLKIYAQIEKKEIKKMIITNINAIFLSSEQDYSTLKELLEYSDDIAENDNLDNVSKNALDKLRNNLNSLIEEINERSETQTKDENNTANDQYSSILGNSFNKSSNDTIEHAADITDGNNTELTKTTVNISAVDNTTEQSNSRKRTRSEAEQIDTSKNLENMSIQDTSTVAKNVSFVLPDEKSDAMSIDEEDKDSESFSEVC
Consider B4, for which the binding result is on record as “binds”.
